# Results as given in the supplement of paper PMC12823440, “Inhibitors supercharge kinase turnover through native proteolytic circuits” (Nature, 2025).
# By UniProt entry, the sequences of proteins in these tests, tags left out. Where a name states a change or a piece, a line headed by the entry shows the natural chain unless it says otherwise.
# UniProt Q9Y616: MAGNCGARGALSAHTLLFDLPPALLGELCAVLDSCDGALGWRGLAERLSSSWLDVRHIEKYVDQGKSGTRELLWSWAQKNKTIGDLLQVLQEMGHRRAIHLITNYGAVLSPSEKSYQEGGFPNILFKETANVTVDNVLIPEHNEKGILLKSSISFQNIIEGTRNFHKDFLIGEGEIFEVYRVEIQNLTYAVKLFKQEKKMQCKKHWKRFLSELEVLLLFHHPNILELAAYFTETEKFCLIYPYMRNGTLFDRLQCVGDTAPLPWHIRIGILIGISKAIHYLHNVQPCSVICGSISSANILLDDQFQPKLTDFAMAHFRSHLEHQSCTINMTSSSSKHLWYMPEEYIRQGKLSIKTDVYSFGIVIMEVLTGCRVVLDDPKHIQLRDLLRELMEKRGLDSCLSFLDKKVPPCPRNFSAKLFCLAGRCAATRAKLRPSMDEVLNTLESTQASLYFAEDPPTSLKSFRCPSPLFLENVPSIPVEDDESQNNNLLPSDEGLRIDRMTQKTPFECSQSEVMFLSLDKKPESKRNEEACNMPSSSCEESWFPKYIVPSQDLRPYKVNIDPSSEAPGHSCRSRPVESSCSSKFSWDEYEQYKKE
# UniProt P23458: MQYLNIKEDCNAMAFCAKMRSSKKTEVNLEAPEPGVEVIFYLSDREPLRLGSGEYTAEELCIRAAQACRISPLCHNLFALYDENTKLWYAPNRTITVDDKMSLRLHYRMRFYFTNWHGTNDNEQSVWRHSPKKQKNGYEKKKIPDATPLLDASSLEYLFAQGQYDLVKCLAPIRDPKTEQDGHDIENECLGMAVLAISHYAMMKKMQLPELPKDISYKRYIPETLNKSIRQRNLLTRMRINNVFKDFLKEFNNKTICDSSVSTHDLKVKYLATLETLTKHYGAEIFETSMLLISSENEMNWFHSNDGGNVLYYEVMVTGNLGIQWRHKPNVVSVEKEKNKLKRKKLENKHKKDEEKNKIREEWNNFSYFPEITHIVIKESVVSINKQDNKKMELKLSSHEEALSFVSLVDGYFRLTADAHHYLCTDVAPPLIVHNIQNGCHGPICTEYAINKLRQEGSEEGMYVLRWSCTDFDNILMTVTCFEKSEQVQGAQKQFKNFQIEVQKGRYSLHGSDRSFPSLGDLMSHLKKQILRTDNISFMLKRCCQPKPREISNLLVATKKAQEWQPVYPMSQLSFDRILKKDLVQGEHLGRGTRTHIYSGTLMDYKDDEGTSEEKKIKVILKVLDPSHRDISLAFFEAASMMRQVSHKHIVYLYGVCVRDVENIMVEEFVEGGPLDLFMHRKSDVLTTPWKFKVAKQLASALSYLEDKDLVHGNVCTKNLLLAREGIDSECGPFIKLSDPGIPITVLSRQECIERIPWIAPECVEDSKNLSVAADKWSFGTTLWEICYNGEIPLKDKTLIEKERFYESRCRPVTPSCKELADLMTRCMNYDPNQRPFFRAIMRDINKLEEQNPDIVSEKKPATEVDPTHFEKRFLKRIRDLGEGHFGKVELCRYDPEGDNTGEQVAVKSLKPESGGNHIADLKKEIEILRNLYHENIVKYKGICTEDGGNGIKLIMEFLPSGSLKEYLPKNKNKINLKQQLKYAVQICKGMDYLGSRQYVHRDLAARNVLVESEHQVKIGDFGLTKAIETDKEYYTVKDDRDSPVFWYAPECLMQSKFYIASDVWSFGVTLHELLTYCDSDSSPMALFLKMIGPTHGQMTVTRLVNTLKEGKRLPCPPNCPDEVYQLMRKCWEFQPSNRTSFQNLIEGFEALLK
# UniProt P06239: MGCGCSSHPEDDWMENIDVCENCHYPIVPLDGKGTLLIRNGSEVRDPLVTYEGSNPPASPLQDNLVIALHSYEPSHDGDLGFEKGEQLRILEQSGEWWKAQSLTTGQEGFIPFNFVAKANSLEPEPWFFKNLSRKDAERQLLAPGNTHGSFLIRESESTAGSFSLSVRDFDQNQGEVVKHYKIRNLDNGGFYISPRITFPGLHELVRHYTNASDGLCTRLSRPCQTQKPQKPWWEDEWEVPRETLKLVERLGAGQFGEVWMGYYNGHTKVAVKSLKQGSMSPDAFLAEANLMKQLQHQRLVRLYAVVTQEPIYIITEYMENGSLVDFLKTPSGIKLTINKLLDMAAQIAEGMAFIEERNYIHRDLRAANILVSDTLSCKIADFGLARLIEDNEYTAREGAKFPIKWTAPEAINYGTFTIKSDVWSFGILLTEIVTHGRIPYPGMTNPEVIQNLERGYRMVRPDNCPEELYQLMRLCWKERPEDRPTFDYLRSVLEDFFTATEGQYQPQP
# UniProt P53671: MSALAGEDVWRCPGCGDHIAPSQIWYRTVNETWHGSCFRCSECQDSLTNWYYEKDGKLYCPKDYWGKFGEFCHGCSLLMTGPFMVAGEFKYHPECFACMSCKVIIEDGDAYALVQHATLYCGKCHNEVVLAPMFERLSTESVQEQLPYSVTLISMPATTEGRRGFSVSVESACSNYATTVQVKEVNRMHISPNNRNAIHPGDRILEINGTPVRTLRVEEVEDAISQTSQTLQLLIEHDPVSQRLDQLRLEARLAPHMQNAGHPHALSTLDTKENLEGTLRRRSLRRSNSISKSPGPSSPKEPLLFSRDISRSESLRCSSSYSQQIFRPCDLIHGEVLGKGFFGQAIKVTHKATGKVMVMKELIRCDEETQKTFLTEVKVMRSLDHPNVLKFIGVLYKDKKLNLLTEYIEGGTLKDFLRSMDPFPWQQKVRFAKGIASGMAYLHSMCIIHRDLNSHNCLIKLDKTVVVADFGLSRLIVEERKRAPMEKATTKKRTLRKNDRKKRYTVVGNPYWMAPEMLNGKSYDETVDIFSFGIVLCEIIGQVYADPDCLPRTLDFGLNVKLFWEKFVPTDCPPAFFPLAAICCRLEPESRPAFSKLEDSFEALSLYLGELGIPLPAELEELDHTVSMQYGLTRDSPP
# UniProt Q12851: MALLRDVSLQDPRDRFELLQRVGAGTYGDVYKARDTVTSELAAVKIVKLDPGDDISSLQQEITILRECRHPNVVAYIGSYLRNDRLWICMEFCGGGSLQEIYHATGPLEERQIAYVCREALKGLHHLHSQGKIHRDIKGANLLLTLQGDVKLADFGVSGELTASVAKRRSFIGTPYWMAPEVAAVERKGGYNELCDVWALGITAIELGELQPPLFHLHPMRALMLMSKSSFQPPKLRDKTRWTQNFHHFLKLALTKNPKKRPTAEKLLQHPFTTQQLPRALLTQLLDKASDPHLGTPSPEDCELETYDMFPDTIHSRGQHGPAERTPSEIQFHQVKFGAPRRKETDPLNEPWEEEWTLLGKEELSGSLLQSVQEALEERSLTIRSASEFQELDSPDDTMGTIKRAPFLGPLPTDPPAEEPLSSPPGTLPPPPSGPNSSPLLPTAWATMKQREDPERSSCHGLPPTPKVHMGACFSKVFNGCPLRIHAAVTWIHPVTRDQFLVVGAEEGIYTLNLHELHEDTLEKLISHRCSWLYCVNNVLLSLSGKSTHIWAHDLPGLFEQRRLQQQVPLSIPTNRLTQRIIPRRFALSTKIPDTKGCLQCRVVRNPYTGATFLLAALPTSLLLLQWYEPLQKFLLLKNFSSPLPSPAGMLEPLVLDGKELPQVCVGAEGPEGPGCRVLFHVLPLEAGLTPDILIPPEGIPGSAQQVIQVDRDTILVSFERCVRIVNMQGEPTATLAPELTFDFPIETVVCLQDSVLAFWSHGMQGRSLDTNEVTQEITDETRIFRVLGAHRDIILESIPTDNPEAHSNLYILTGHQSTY
# UniProt P31152, whole entry: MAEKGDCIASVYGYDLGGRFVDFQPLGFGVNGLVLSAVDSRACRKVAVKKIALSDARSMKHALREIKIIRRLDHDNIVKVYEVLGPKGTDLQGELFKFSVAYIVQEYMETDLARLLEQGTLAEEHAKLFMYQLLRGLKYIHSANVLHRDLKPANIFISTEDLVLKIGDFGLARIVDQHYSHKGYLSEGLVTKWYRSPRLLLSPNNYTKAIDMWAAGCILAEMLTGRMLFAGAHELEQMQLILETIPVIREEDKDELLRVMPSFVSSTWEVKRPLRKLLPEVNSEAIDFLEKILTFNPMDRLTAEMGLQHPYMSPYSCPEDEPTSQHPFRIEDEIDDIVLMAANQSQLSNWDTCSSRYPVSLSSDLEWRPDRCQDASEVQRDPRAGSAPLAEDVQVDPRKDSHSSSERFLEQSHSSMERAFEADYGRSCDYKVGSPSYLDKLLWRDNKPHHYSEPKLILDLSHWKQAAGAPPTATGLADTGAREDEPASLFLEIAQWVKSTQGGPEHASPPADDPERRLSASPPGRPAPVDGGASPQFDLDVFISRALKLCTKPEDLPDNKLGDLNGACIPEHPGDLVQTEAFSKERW
# UniProt Q16620, whole entry, looked up: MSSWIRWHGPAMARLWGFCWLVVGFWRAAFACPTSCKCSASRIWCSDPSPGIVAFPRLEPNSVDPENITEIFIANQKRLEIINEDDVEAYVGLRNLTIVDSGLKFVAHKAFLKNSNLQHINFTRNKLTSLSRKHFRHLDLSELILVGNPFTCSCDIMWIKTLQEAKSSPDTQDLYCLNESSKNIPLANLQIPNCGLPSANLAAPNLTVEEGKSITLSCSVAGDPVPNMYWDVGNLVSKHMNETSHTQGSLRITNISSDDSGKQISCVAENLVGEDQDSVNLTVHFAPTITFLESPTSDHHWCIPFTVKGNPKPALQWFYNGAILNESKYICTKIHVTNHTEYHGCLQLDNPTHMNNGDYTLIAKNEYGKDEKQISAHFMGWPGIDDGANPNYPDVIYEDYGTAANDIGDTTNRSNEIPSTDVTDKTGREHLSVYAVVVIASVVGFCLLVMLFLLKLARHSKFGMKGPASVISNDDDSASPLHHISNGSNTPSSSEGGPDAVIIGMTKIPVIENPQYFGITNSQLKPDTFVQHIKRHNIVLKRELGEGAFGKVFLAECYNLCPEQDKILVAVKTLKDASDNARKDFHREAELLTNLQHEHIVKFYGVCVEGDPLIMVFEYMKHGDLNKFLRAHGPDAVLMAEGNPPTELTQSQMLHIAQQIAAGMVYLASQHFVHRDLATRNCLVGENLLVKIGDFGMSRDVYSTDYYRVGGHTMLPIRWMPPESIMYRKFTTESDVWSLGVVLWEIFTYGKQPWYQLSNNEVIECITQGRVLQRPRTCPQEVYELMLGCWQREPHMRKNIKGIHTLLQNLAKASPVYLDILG
# UniProt Q96KB5: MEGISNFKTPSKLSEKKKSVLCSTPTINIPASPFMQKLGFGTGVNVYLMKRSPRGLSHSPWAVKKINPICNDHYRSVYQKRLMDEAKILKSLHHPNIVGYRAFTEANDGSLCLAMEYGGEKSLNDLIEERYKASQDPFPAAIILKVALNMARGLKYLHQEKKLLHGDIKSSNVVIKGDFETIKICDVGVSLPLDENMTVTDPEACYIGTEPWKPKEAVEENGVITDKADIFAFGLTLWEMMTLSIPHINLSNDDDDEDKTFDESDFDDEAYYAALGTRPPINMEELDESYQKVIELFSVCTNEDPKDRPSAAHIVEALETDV
# UniProt P09619, whole entry: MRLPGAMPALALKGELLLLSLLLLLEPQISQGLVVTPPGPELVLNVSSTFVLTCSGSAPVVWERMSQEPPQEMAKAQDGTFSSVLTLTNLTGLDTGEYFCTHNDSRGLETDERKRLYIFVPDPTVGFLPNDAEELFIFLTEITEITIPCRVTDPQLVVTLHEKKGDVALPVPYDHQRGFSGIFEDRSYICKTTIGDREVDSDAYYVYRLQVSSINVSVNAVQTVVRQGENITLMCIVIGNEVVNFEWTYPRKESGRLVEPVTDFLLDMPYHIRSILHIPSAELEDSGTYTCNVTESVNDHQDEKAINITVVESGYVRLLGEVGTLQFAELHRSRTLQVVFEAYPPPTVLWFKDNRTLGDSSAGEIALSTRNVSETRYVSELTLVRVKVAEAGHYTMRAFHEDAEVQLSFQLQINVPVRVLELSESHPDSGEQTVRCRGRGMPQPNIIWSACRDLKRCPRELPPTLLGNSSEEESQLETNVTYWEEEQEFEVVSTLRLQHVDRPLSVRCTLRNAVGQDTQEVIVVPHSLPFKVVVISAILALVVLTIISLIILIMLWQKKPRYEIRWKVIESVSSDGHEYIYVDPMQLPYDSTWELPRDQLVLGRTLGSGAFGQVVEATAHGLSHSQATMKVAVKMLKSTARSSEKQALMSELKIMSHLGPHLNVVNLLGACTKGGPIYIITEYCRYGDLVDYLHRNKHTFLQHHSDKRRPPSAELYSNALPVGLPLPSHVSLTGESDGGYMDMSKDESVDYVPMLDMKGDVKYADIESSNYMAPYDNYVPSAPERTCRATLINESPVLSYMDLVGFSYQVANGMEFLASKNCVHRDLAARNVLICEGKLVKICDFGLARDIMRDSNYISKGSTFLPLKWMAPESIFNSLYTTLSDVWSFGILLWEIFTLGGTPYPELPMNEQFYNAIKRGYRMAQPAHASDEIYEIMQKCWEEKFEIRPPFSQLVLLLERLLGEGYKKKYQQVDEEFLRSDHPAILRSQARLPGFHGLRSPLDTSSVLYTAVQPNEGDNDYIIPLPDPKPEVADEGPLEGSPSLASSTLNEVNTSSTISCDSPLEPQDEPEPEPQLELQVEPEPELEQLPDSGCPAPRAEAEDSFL
# Counter-ions that a name gives are not always drawn. This is one part of the list. The calls rarely recur for the same compound in another form.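 Kinases were expressed as nanoluciferase fusions in K562 cells and luminescence was read every 4 h between 2 and 18 h as percent of control, DMSO set to 100% and a positive control to 0%. A time point counts as decreased when the signal drops significantly (2 sigma). The hit call is the authors' own, does not follow from the count of time points alone, and its rule is not shown.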
# Assays:
# Test in all cases: kinase-Nluc reporter destabilization hit call (1 = scored as downregulated) (binary); higher = compound decreases kinase abundance
# Settings in all cases: K562; 2-18 h
# IRAK3 = IRAK3 (UniProt Q9Y616)
# JAK1 = JAK1 (UniProt P23458)
# LCK = LCK (UniProt P06239)
# LIMK1 = LIMK1 (UniProt P53667)
# LIMK2 = LIMK2 (UniProt P53671)
# LMTK2 = LMTK2 (UniProt Q8IWU2)
# LYN = LYN (UniProt P07948)
# MAP2K1 = MAP2K1 (UniProt Q02750)
# MAP2K2 = MAP2K2 (UniProt P36507)
# MAP4K2 = MAP4K2 (UniProt Q12851)
# MAPK1 = MAPK1 (UniProt P28482)
# MAPK4 = MAPK4 (UniProt P31152)
# MAPKAPK2 = MAPKAPK2 (UniProt P49137)
# MKNK1 = MKNK1 (UniProt Q9BUB5)
# NTRK2 = NTRK2 (UniProt Q16620)
# NTRK3 = NTRK3 (UniProt Q16288)
# PAK4 = PAK4 (UniProt O96013)
# PBK = PBK (UniProt Q96KB5)
# PDGFRB = PDGFRB (UniProt P09619)
# PDK1 = PDK1 (UniProt Q15118)
SMILES,kinase-Nluc reporter destabilization hit call (IRAK3),kinase-Nluc reporter destabilization hit call (JAK1),kinase-Nluc reporter destabilization hit call (LCK),kinase-Nluc reporter destabilization hit call (LIMK1),kinase-Nluc reporter destabilization hit call (LIMK2),kinase-Nluc reporter destabilization hit call (LMTK2),kinase-Nluc reporter destabilization hit call (LYN),kinase-Nluc reporter destabilization hit call (MAP2K1),kinase-Nluc reporter destabilization hit call (MAP2K2),kinase-Nluc reporter destabilization hit call (MAP4K2),kinase-Nluc reporter destabilization hit call (MAPK1),kinase-Nluc reporter destabilization hit call (MAPK4),kinase-Nluc reporter destabilization hit call (MAPKAPK2),kinase-Nluc reporter destabilization hit call (MKNK1),kinase-Nluc reporter destabilization hit call (NTRK2),kinase-Nluc reporter destabilization hit call (NTRK3),kinase-Nluc reporter destabilization hit call (PAK4),kinase-Nluc reporter destabilization hit call (PBK),kinase-Nluc reporter destabilization hit call (PDGFRB),kinase-Nluc reporter destabilization hit call (PDK1)
Cc1cc([C@@H](C)Nc2ccccc2C(=O)O)c2nc(N3CCOCC3)cc(=O)n2c1 (10 µM),inactive: 0,inactive: 0,inactive: 0,inactive: 0,inactive: 0,inactive: 0,inactive: 0,inactive: 0,inactive: 0,inactive: 0,inactive: 0,inactive: 0,inactive: 0,inactive: 0,inactive: 0,inactive: 0,inactive: 0,inactive: 0,inactive: 0,inactive: 0
Cc1cc(C)cc(NC(N)=Nc2ccccc2C(F)(F)F)c1 (10 µM),inactive: 0,inactive: 0,inactive: 0,inactive: 0,inactive: 0,inactive: 0,inactive: 0,inactive: 0,inactive: 0,inactive: 0,inactive: 0,inactive: 0,inactive: 0,inactive: 0,inactive: 0,inactive: 0,inactive: 0,inactive: 0,inactive: 0,inactive: 0
COc1cc2c(cc1Nc1ncc(C(N)=O)c(Nc3c(F)cccc3C(F)(F)F)n1)CN(C)CC2 (2.5 µM),inactive: 0,inactive: 0,inactive: 0,inactive: 0,inactive: 0,inactive: 0,inactive: 0,inactive: 0,inactive: 0,inactive: 0,inactive: 0,inactive: 0,inactive: 0,inactive: 0,inactive: 0,inactive: 0,inactive: 0,inactive: 0,inactive: 0,inactive: 0
N#C/C(=C\c1ccc(O)c(O)c1)C(=O)O [Tyrphostin AG30] (10 µM),inactive: 0,inactive: 0,inactive: 0,inactive: 0,inactive: 0,inactive: 0,inactive: 0,inactive: 0,inactive: 0,inactive: 0,inactive: 0,inactive: 0,inactive: 0,inactive: 0,inactive: 0,inactive: 0,inactive: 0,inactive: 0,inactive: 0,inactive: 0
c1ccc(Cn2c(-c3ccc(OC[C@H](C4CCNCC4)n4c(-c5ccccc5)nc5ccccc54)cc3)nc3ccccc32)cc1 [Deltarasin] (2.5 µM),inactive: 0,active: 1,inactive: 0,inactive: 0,inactive: 0,inactive: 0,inactive: 0,inactive: 0,inactive: 0,inactive: 0,inactive: 0,inactive: 0,inactive: 0,inactive: 0,inactive: 0,inactive: 0,inactive: 0,inactive: 0,inactive: 0,inactive: 0
C=CC(=O)N1CCN(C(=O)CNc2cc(I)c(Cl)cc2O)CC1 [K-Ras(G12C) inhibitor 12] (10 µM),inactive: 0,inactive: 0,inactive: 0,inactive: 0,inactive: 0,inactive: 0,inactive: 0,inactive: 0,inactive: 0,inactive: 0,inactive: 0,inactive: 0,inactive: 0,inactive: 0,inactive: 0,inactive: 0,inactive: 0,inactive: 0,inactive: 0,inactive: 0
Cc1cc(C(=O)NC(C)(C)C)cc(C#Cc2ccc3c4c(oc3c2)C(C)(C)c2cc(NS(C)(=O)=O)ccc2C4=O)n1 (10 µM),inactive: 0,inactive: 0,inactive: 0,inactive: 0,inactive: 0,inactive: 0,inactive: 0,inactive: 0,inactive: 0,inactive: 0,inactive: 0,inactive: 0,inactive: 0,inactive: 0,inactive: 0,inactive: 0,inactive: 0,inactive: 0,inactive: 0,inactive: 0
Cc1cccc(/C=N/Nc2cc(N3CCOCC3)n3nc(-c4ccncc4)cc3n2)c1 (10 µM),inactive: 0,active: 1,inactive: 0,inactive: 0,inactive: 0,inactive: 0,inactive: 0,inactive: 0,inactive: 0,inactive: 0,inactive: 0,inactive: 0,inactive: 0,inactive: 0,inactive: 0,inactive: 0,inactive: 0,inactive: 0,inactive: 0,inactive: 0
COc1cc2ncnc(Nc3ccc(O)c(Br)c3)c2cc1OC (10 µM),inactive: 0,inactive: 0,inactive: 0,inactive: 0,inactive: 0,inactive: 0,inactive: 0,inactive: 0,inactive: 0,inactive: 0,inactive: 0,inactive: 0,inactive: 0,inactive: 0,inactive: 0,inactive: 0,inactive: 0,inactive: 0,inactive: 0,inactive: 0
COc1cc(F)ccc1-c1ncnc(Nc2cccc(C[S@](C)(=N)=O)c2)n1 [Atuveciclib] (2.5 µM),inactive: 0,inactive: 0,inactive: 0,inactive: 0,inactive: 0,inactive: 0,inactive: 0,inactive: 0,inactive: 0,inactive: 0,inactive: 0,inactive: 0,inactive: 0,inactive: 0,inactive: 0,inactive: 0,inactive: 0,inactive: 0,inactive: 0,inactive: 0
CCN(CC)CCCC(C)Nc1nc(C)cc(Nc2ccc3nc(C)cc(N)c3c2)n1 (stereo not given) (10 µM),inactive: 0,inactive: 0,inactive: 0,inactive: 0,inactive: 0,inactive: 0,inactive: 0,inactive: 0,inactive: 0,inactive: 0,inactive: 0,inactive: 0,inactive: 0,inactive: 0,inactive: 0,inactive: 0,inactive: 0,inactive: 0,inactive: 0,inactive: 0
N#Cc1ccc(-c2cnc3ccc(-c4ccc(C(=O)N5CCOCC5)cc4)cn23)cc1 (10 µM),inactive: 0,inactive: 0,inactive: 0,inactive: 0,inactive: 0,inactive: 0,inactive: 0,inactive: 0,inactive: 0,inactive: 0,inactive: 0,inactive: 0,inactive: 0,inactive: 0,inactive: 0,inactive: 0,inactive: 0,inactive: 0,inactive: 0,inactive: 0
NCCOc1ccc(Cl)cc1C(=O)Nc1ccc([N+](=O)[O-])cc1Cl [HJC0152 hydrochloride] (2 µM),inactive: 0,inactive: 0,inactive: 0,inactive: 0,inactive: 0,inactive: 0,inactive: 0,inactive: 0,inactive: 0,inactive: 0,inactive: 0,inactive: 0,inactive: 0,inactive: 0,inactive: 0,inactive: 0,inactive: 0,inactive: 0,inactive: 0,inactive: 0
Cc1nn(C)cc1-c1nc2c(N3CCN(Cc4ccc(Cl)cc4)CC3)c(Cl)cnc2[nH]1 (10 µM),inactive: 0,inactive: 0,inactive: 0,inactive: 0,inactive: 0,inactive: 0,inactive: 0,inactive: 0,inactive: 0,inactive: 0,inactive: 0,inactive: 0,inactive: 0,inactive: 0,inactive: 0,inactive: 0,inactive: 0,inactive: 0,inactive: 0,inactive: 0
Cn1c(=O)c2c(nc(S(C)(=O)=O)n2C)n(CC#Cc2cccc(O)c2)c1=O (2.5 µM),inactive: 0,inactive: 0,inactive: 0,inactive: 0,inactive: 0,inactive: 0,inactive: 0,inactive: 0,inactive: 0,inactive: 0,inactive: 0,inactive: 0,inactive: 0,inactive: 0,inactive: 0,inactive: 0,inactive: 0,inactive: 0,inactive: 0,inactive: 0
O=c1[nH]ccc2nc(-c3ccc(CN4CCC(c5nc(-c6ccccn6)n[nH]5)CC4)cc3)c(-c3ccccc3)cc12 (10 µM),inactive: 0,inactive: 0,inactive: 0,inactive: 0,inactive: 0,inactive: 0,inactive: 0,inactive: 0,inactive: 0,inactive: 0,inactive: 0,inactive: 0,inactive: 0,inactive: 0,inactive: 0,inactive: 0,inactive: 0,inactive: 0,inactive: 0,inactive: 0
Cc1cc(Nc2cc(N)ncn2)c(=O)n2c1C(=O)NC21CCCCC1 [Tomivosertib] (10 µM),inactive: 0,inactive: 0,inactive: 0,inactive: 0,inactive: 0,inactive: 0,inactive: 0,inactive: 0,inactive: 0,inactive: 0,inactive: 0,inactive: 0,inactive: 0,inactive: 0,inactive: 0,inactive: 0,inactive: 0,inactive: 0,inactive: 0,inactive: 0
COCCOCCc1c(C)c2cc(OC)c(O)c(C=O)c2oc1=O (10 µM),inactive: 0,inactive: 0,inactive: 0,inactive: 0,inactive: 0,inactive: 0,inactive: 0,inactive: 0,inactive: 0,inactive: 0,inactive: 0,inactive: 0,inactive: 0,inactive: 0,inactive: 0,inactive: 0,inactive: 0,inactive: 0,inactive: 0,inactive: 0

# Laid out differently: two of the compounds above
SMILES	kinase-Nluc reporter destabilization hit call (IRAK3)	kinase-Nluc reporter destabilization hit call (JAK1)	kinase-Nluc reporter destabilization hit call (LCK)	kinase-Nluc reporter destabilization hit call (LIMK1)	kinase-Nluc reporter destabilization hit call (LIMK2)	kinase-Nluc reporter destabilization hit call (LMTK2)	kinase-Nluc reporter destabilization hit call (LYN)	kinase-Nluc reporter destabilization hit call (MAP2K1)	kinase-Nluc reporter destabilization hit call (MAP2K2)	kinase-Nluc reporter destabilization hit call (MAP4K2)	kinase-Nluc reporter destabilization hit call (MAPK1)	kinase-Nluc reporter destabilization hit call (MAPK4)	kinase-Nluc reporter destabilization hit call (MAPKAPK2)	kinase-Nluc reporter destabilization hit call (MKNK1)	kinase-Nluc reporter destabilization hit call (NTRK2)	kinase-Nluc reporter destabilization hit call (NTRK3)	kinase-Nluc reporter destabilization hit call (PAK4)	kinase-Nluc reporter destabilization hit call (PBK)	kinase-Nluc reporter destabilization hit call (PDGFRB)	kinase-Nluc reporter destabilization hit call (PDK1)
N#C/C(=C\c1ccc(O)c(O)c1)C(=O)O [Tyrphostin AG30] (10 µM)	inactive: 0	inactive: 0	inactive: 0	inactive: 0	inactive: 0	inactive: 0	inactive: 0	inactive: 0	inactive: 0	inactive: 0	inactive: 0	inactive: 0	inactive: 0	inactive: 0	inactive: 0	inactive: 0	inactive: 0	inactive: 0	inactive: 0	inactive: 0
c1ccc(Cn2c(-c3ccc(OC[C@H](C4CCNCC4)n4c(-c5ccccc5)nc5ccccc54)cc3)nc3ccccc32)cc1 [Deltarasin] (2.5 µM)	inactive: 0	active: 1	inactive: 0	inactive: 0	inactive: 0	inactive: 0	inactive: 0	inactive: 0	inactive: 0	inactive: 0	inactive: 0	inactive: 0	inactive: 0	inactive: 0	inactive: 0	inactive: 0	inactive: 0	inactive: 0	inactive: 0	inactive: 0
